Paper doi:10.1101/2024.07.29.605622
Results are given in words; binding and its absence hold for the method and conditions named. In cells and extracts the contact can be indirect. These calls come from enrichment with a bait or labelling near it, and not all partners need be listed.

Protein sequences, listed by entry. Tags and fused reporters are not part of them.
UniProt P51784: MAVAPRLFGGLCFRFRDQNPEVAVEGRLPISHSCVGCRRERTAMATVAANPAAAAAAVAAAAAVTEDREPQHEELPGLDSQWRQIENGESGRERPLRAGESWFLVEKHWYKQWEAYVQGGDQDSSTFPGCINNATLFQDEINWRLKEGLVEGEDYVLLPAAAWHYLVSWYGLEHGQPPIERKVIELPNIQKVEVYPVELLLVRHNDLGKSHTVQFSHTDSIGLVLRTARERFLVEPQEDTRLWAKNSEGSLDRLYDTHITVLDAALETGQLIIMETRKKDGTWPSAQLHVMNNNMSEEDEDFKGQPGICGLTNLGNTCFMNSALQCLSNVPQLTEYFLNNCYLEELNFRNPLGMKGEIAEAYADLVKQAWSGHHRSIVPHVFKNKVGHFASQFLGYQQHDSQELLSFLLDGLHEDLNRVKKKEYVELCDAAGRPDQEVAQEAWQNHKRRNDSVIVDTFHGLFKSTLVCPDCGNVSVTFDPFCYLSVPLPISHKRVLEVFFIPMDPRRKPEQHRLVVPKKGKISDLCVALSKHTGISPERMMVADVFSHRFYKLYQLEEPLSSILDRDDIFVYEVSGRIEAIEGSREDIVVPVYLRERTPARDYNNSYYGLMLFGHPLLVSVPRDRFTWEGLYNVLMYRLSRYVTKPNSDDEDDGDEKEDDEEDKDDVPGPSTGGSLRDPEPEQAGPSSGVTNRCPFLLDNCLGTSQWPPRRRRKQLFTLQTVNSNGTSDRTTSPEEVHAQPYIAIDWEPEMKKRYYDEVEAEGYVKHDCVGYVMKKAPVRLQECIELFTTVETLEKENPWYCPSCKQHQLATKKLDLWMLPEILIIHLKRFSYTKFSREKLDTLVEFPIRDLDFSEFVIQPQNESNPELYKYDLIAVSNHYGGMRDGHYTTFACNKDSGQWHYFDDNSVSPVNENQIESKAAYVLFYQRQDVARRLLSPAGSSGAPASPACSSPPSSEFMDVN
UniProt Q93009: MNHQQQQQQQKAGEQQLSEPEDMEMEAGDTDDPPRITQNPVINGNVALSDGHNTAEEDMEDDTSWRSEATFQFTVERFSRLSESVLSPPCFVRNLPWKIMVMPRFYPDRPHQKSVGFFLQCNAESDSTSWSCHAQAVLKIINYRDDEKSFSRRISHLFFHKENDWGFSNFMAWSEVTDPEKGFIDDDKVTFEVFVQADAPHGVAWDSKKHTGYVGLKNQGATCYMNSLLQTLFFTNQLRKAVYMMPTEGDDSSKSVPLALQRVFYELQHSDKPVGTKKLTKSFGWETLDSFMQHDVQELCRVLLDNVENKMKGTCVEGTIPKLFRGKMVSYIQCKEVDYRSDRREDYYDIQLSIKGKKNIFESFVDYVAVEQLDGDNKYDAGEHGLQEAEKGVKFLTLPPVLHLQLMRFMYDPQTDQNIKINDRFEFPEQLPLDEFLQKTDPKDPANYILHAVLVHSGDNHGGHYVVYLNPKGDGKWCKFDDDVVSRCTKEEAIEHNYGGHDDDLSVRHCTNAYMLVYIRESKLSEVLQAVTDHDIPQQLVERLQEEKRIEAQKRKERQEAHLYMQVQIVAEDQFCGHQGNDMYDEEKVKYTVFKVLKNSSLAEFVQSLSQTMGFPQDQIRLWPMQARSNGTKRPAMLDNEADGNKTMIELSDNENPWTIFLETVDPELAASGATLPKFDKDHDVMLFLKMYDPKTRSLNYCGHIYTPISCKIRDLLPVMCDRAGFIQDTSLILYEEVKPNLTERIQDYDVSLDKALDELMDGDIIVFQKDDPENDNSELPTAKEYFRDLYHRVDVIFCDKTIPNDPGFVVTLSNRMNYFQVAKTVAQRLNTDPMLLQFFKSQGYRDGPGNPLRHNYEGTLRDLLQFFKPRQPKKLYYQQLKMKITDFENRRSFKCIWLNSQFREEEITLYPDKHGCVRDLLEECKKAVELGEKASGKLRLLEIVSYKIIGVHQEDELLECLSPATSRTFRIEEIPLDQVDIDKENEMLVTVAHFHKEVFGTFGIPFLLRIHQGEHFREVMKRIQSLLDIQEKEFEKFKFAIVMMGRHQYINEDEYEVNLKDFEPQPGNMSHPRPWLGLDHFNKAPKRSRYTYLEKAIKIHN

Columns and labels:
[1] = biological target: HA-tagged USP11, HA at the amino-terminus (human) (UniProt P51784); assay: affinity purification with mass spectrometry
[2] = biological target: HA-tagged USP11, HA at the carboxy-terminus (human) (UniProt P51784); assay: affinity purification with mass spectrometry

USP7 (endogenous) (from UniProt Q93009 1-1102) (enzyme)
binding [1]: binds
binding [2]: binds
